Experimental data: paper PMC7725503
No constants are given. Whether binding was seen depends on the method and setting.

Molecular target: T1, PMTmApple
T1 sequence: MGCFFSKRRKADKES
Assay: fluorescence cross-correlation spectroscopy (quasi-PIE FCCS); live embryos from the cross of the Wnt3EGFP and PMTmApple transgenic lines; negative control

binding: no binding
Substance: Wnt3EGFP (zebrafish) (ligand)
